No constants are given. Whether binding was seen depends on the method and setting. Some entries that bind do so weakly or less than the wild type.
T1: APOBEC-1 (as used in yeast two hybrid analyses and in the Drosophila S2 cell editing system) (UniProt P38483)
T1 sequence (looked up): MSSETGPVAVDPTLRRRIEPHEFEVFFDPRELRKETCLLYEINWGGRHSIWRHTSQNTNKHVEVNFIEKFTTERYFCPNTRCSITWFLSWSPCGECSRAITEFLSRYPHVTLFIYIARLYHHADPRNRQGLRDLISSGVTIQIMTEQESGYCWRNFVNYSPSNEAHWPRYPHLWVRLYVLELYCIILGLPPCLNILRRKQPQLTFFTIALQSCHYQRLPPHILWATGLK


Molecular target: T1, APOBEC-1 (as used in yeast two hybrid analyses and in the Drosophila S2 cell editing system)
Test: yeast two hybrid, histidine prototrophy with increasing 3-aminotriazole

binding	Binder
binds	ACF43 (protein) MESNHKSGDGLSGTQKEAALRALVQRTGYSLVQENGQRKYGGPPPGWDTTPPERGCEIFIGKLPRDLFEDELIPLCEKIGKIYEMRMMMDFNGNNRGYAFVTFSNKQEAKNAIKQLNNYEIRNGRLLGVCASVDNCRLFVGGIPKTKKREEILSEMKKVTEGVVDVIVYPSAADKTKNRGFAFVEYESHRAAAMARRRLLPGRIQLWGHPIAVDWAEPEVEVDEDTMSSVKILYVRNLMLSTSEEMIEKEFNSIKPGAVERVKKIRDYAFVHFSNREDAVEAMKALNGKVLDGSPIEVTLAKPVDKDSYVRYTRGTGGRNTMLQEYTYPLSHVYDPTTTYLGAPVFYAPQAYAAIPSLHFPATKGHLSNRALIRTPSVRGNIS
binds	ACF45 (protein) MESNHKSGDGLSGTQKEAALRALVQRTGYSLVQENGQRKYGGPPPGWDTTPPERGCEIFIGKLPRDLFEDELIPLCEKIGKIYEMRMMMDFNGNNRGYAFVTFSNKQEAKNAIKQLNNYEIRNGRLLGVCASVDNCRLFVGGIPKTKKREEILSEMKKVTEGVVDVIVYPSAADKTKNRGFAFVEYESHRAAAMARRRLLPGRIQLWGHPIAVDWAEPEVEVDEDTMSSVKILYVRNLMLSTSEEMIEKEFNSIKPGAVERVKKIRDYAFVHFSNREDAVEAMKALNGKVLDGSPIEVTLAKPVDKDSYVRYTRGTGGRNTMLQEYTYPLSHVYDPTTTYLGAPVFYAPQAYAAIPSLHFPATKGHLSNRALIRTPSVRGCSRTPSIYLCFLTAVHAGVHHIHVQ

Source: patent US20090075925A1, “Methods and Compositions Related to APOBEC-1 Expression” (priority 2006, published 2009)
